Where “and” joins values, the source holds several entries; their conditions need not be identical. Equal entries are not always repeated. Further values from the same series stand in other lists.
Tested on: renal fibrosis
Assay: Unilateral Urethral Obstruction (UUO) renal fibrosis model in rats: body weight, clinical observations, histopathology scores, serum urea, hydroxyproline
Assay type: in vivo, rat
Settings: 30 mg/kg
Source text: Unilateral Urethral Obstruction (UUO) is a complex model of renal fibrosis (RF) disease. RF is a common outcome in progressive chronic kidney diseases, characterized by excessive formation of internal scar tissue. Surgical obstruction of urine flow can be used to trigger this disease in rodents. The UUO model allows for evaluation of potential drugs as treatment for RF.
Experimental groups for the study are outlined in Table 10. […] Briefly, animals were anesthetized using a Zoletil/Xylazine mixture (20:1, v:v) for a final dose of 25 mg/kg. The operation area was disinfected with 75% alcohol before shaving. Rats in UUO group were exposed left ureter through a small incision on the left side of the abdomen and ligated with 3-0 silk at two locations about 0.5 cm below the renal hilum. The ureters of sham rats in Group 1 were manipulated but not ligated.
Starting on Day 0, animals in group 2 were administered daily doses of the vehicle for 14 days.
Clinical signs for all animals were monitored and recorded daily. Blind clinical nephropathy scores were conducted for all animals in the study. Glomerulosclerosis, interstitial nephritis, collagen fiber deposition, nephropathy were each assessed for all experimental rats, and a total clinical score was determined for each rat. The scoring system represented the degree or percentage of lesions in the whole kidney. Clinical score assessments were performed on Day 14.
Serum for blood biochemistry analysis was collected into centrifuge tubes without coagulant four hours after final dosing. Blood plasma samples from group 3 was collected into tubes with K2EDTA four hours after final dosing. At the conclusion of the study (end of the 14-day period), animals were euthanized. Kidney tissue was collected four hours after final dosing. Ligated side kidney was divided into three copies ⅓ fix into 10% formalin for H&E analysis, ⅓ into RNA for PCR analysis of tissue biomarkers Col1a1, TGF-b1, MCP-1, IL-1b, IL-6, IL-17, TNF-a, and Timp1, and ⅓ for hydroxyproline assay analyzed by ELISA. RNA was extracted from tissue using the RNeasy mini kit (Qiagen). RNA concentration was measured using a NanoDrop One Spectrophotometer (ThermoFisher) and converted to cDNA using a High-Capacity RNA-to-cDNA kit (Invitrogen). RT-PCR was performed to measure levels of mRNA of different targets using TaqMan® Gene Expression Master Mix and TaqMan® probe/primer sets on a QuantStudio 6, Real-Time PCR System (ThermoFisher). Fold change in target gene expression was determined using the ΔΔCt method.

SMILES: CNC(=O)c1[nH]c(C(=O)NC2CCC2)cc1O[C@@H](C)c1ccccc1 (stereo in doubt) [Example 101, N^5-cyclobutyl-N^2-methyl-3-(1-phenylethoxy)-1H-pyrrole-2,5-dicarboxamide]
- Body weight (Day 8, individual animals): 292 g and 290 g and 309 g and 326 g
- Body weight (Day 9, individual animals): 296 g and 291 g and 309 g and 329 g
- Body weight (Day 10, individual animals): 301 g and 295 g and 320 g
- Body weight (Day 11, individual animals): 305 g and 300 g and 330 g and 345 g
- Body weight (Day 12, individual animals): 310 g and 300 g and 331 g and 340 g
- Body weight (Day 13, individual animals): 313 g and 308 g and 334 g and 347 g
- Body weight (Day 14, individual animals): 312 g (2×) and 339 g and 348 g
